Measured values from publication PMC12722638.
Results are given in words; binding and its absence hold for the method and conditions named. In cells and extracts the contact can be indirect. Some results given as binding are weak or reduced against the parent protein; the word gives no strength. Values belong to the substance of their own block, whether it stands above or below them.

By UniProt entry, the sequences of proteins in these tests, tags left out. Where a name states a change or a piece, a line headed by the entry shows the natural chain unless it says otherwise.
UniProt P40337: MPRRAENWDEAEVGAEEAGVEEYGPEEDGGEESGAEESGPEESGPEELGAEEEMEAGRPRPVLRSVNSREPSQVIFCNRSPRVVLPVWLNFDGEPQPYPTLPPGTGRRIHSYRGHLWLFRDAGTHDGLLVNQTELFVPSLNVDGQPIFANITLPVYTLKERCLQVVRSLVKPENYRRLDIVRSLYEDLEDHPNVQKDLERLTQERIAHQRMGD
UniProt Q13404: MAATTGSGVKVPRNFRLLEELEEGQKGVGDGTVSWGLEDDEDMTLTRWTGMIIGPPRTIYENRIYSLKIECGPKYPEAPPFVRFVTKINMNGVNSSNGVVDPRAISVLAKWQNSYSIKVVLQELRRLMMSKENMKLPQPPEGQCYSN
UniProt Q16763: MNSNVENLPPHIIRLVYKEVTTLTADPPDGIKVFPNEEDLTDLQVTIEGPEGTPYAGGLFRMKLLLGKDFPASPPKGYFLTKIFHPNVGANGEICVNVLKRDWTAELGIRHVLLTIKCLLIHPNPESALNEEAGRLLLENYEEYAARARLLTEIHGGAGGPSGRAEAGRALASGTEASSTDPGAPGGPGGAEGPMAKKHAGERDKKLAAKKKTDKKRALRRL

Key:
[1] = biological target: von Hippel-Lindau (VHL) protein, endogenous (human (endogenous in HEK-293T and HCC cell lines)) (UniProt P40337); experiment: co-IP; endogenous proteins in lysates of HEK-293T and HCC cell lines; primary antibody overnight at 4°C, Protein A/G magnetic beads, Western blot
[2] = biological target: Flag-UBE2V1 (ubiquitin conjugating enzyme E2 variant 1) (UniProt Q13404); experiment: co-IP; Flag-UBE2V1 and His-UBE2S co-expressed; cells not given
[3] = biological target: Flag-UBE2V1 (ubiquitin conjugating enzyme E2 variant 1) (UniProt Q13404); experiment: co-IP; Flag-UBE2V1 and Myc-VHL co-expressed; IP with Flag antibody (forward) or Myc antibody (reverse); 3 distinct cell lines

binding [1]: binds
Substance: UBE2S, endogenous (from UniProt Q16763 1-222) (enzyme)

binding [2]: binds
Substance: His-UBE2S (from UniProt Q16763 1-222) (enzyme)

binding [3]: binds
Substance: Myc-VHL (from UniProt P40337 1-213)
